From ChEMBL document CHEMBL3988442, “University of Dundee, Small-Polar-MMV Screening Library” (2021).

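Cell assay of Leishmania donovani living inside macrophages; the read-out is not stated. Concentration: 30 µM. Higher reads as stronger inhibition (inferred: compounds with an IC50 in retests scored well above the rest). Of about 69,000 compounds tested this way, about 1,000 (1.5%) reached 50% or more in at least one test.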

Results are given as percent effect.
The record does not define 0% and 100%; most values in the screen are far below 50% and negative numbers occur (in some assays of this library far below -100).
This is an unselected part of the compounds tested.
Two or more numbers in one place are separate tests of the same structure; such repeats can differ widely.

| SMILES | percent effect |
|---|---|
| `COc1ccc(CNC(=O)NCc2nc(C)c(C)s2)cn1` | 8.579 |
| `CC(C)N1CCCCC1c1nc(N(C)C)ncc1I.Cl` (stereo not drawn) | 4.985 |
| `c1ccc(CN2CCN(c3ccc4nncn4n3)CC2)nc1` | 16.34 |
| `COCCc1ncc(CN2CCC(Oc3ccccc3C)CC2)cn1` | 18.28 |
| `CC(NC(=O)C1CCN(C(C)C)CC1)c1nncn1C1CCCC1` (stereo not drawn) | 38.57 |
| `O=C(NCC(O)c1cccc(F)c1)C1CCN(C2CCCCC2)CC1` (stereo not drawn) | 11.83 |
| `Cc1nc(CNC(=O)c2ccc3c(c2)nc(N2CCOCC2)n3C)cs1` | 1.615 |
| `Cc1nc(N2CCCOC(Cn3cccn3)C2)c2sccc2n1` (stereo not drawn) | 4.91 |
| `Cn1cnc(S(=O)(=O)N2CCCC2c2ccnc3nccn23)c1` (stereo not drawn) | -47.28 |
| `Cc1cc(C)n(C2CCCN(C(=O)CCNc3ncccn3)C2)n1` (stereo not drawn) | 5.723 |
| `CCCn1cc(C(=O)N(C)Cc2nc(-c3ccccn3)no2)c(C)n1` | 10.02 |
| `O=C(NC1CCCC1)C1CCN(c2cc(-n3ccnc3)ncn2)CC1` | 6.709 and -4.328 |
| `Cc1ccc(C(=O)N2CCC(n3cc(CO)nn3)CC2)cn1` | -3.222 |
| `Fc1ccc(CN2Cc3nccn3CC(CN3CCOCC3)C2)cc1.O=C(O)C(F)(F)F.O=C(O)C(F)(F)F` (stereo not drawn) | 18.55 |
| `CN1CCCn2c(nc(CNC(=O)c3nccn3C)cc2=O)C1.O=C(O)C(F)(F)F.O=C(O)C(F)(F)F` | -12.65 |
| `CN1CCN(C(=O)CCc2cc(Br)cs2)CC1` | 1.944 |
| `Cc1csc(CNC(=O)N(C)Cc2cnn(C)c2)n1` | 29.46 |
| `COCC(=O)NC(c1ccc(Cl)cc1)c1noc(C)n1` (stereo not drawn) | 14.6 |
| `CC(C)NC(=O)N1CCOC2(CCCN(c3ncccc3F)C2)C1.O=C(O)C(F)(F)F` (stereo not drawn) | 1.121 |
| `O=C(O)C(F)(F)F.[H][C@@]12COC[C@]1([H])[C@@H](OCc1cccnc1)CN2C(=O)NC(C)C` | -11.09 |
| `Cc1cnccc1-c1cnn(CCNC(=O)c2ccccn2)c1C1CC1.Cl` | 16.04 |
| `COCCN(C)c1ccc(NCc2cccnc2)nc1` | 0.3003 |
| `CC(C)(C)C(O)CN1CCN(Cc2nccn2CC(F)(F)F)CC1` (stereo not drawn) | 48.05 |
| `COC1COC2(CCN(Cc3cccc(C#N)c3)CC2)C1.O=C(O)C(F)(F)F` (stereo not drawn) | 9.385 |
| `O=C(CCCc1ccccc1)N1CCCC(n2cncn2)C1` (stereo not drawn) | 28.35 |
| `O=C(O)C(F)(F)F.[H][C@@]12CCN(S(C)(=O)=O)[C@@]1([H])CCN2Cc1cc(C)c(C)o1` | -1.457 |
| `CC1(Cc2cccnc2)NCCc2[nH]cnc21` (stereo not drawn) | -16.48 |
| `CC(C)CCC1=NC2(CCN(C(=O)N3CCN(C)CC3)CC2)C(=O)N1` | -8.894 |
| `CCN1CC(C(=O)NCc2nn(CC)c3ccccc23)CCC1=O` (stereo not drawn) | -7.454 |
| `CS(=O)(=O)NCc1ccc(NC(=O)CC2=CCCCC2)cc1` | -6.008 |
| `CN1CCN(CC(NCc2ccc(F)cc2)c2ccccc2)CC1` (stereo not drawn) | 94.48 and 89.79 |
| `CS(=O)(=O)N1CCOCC2(CCN(C(=O)c3cccnc3)CC2)C1.O=C(O)C(F)(F)F` | 17.87 |
| `N#Cc1cccc(OCCN2CCCC(c3noc(C4CC4)n3)C2)c1` (stereo not drawn) | 32.43 |
| `Cc1cc(C(=O)N2C[C@@H](C(=O)O)[C@H](c3ccccc3C)C2)c(C)o1` | -7.821 |
| `[H][C@]12CC[C@]([H])(C1)[C@H](NC(=O)COc1cccc(NC(=O)CC)c1)C2` | -8.683 |
| `Cl.Cl.[H][C@@]12CCNCC1OCCN2Cc1ccccc1` (stereo partly drawn) | 9.278 |
| `Cc1cnn(CC2CCCCN2C(=O)c2csc(C)n2)c1` (stereo not drawn) | 20.18 |
| `Cc1cnn(CCNCc2ccc(C#N)cc2)c1` | 27.75 |
| `COc1cccc(C(=O)N(C)C(C)c2c(C)n[nH]c2C)c1OC` (stereo not drawn) | 27.1 |
| `CCn1cnnc1CNS(=O)(=O)N1CCCC1c1ccc(C)o1` (stereo not drawn) | 27.55 |
| `O=C(N1CCOCC1)N1CCc2ncnc(NC3CC3)c2CC1` | 12.35 |
| `CS(=O)(=O)N1CCC(C(=O)N2CCOc3ccccc32)CC1` | 6.028 |
| `Cc1cccc(OC2CN(C(=O)C3CC(=O)N(C4CC4)C3)C2)c1` (stereo not drawn) | 16.57 |
| `[H][C@@]12C[C@H](c3nnc(C)o3)CN(S(=O)(=O)CC)[C@]1([H])CCO2` | 15.39 |
| `Cc1noc(C)c1NC(=O)CCn1cc(Br)ccc1=O` | 21.95 |
| `Cc1nc(N2CCN(C(=O)c3ccccc3)CC2)c2cnn(C)c2n1` | 17.86 |
| `O=C(O)C(F)(F)F.[H][C@@]12CCN(Cc3ccccc3)C[C@]1([H])[C@H](C(=O)N(C)C)CCO2` | 2.47 |
| `CCC(=O)c1cccc(S(=O)(=O)NC(C)C#N)c1` (stereo not drawn) | 23.56 |
| `[H][C@@]12CCN(c3ncccn3)C[C@@]1([H])[C@H](C(=O)N(C)C)CCO2` | 17.44 |
| `Cc1ccc2c(c1)OCCCC2NCc1nccn1CC(C)C` (stereo not drawn) | 9.865 |
| `O=C(NCCc1ccn(-c2ccccc2)n1)N1CCCC(O)C1` (stereo not drawn) | -8.073 |
| `CN(CC1(O)CCCC1)C(=O)c1cccc(Nc2cnccn2)c1` | -20.98 |
| `CO[C@@H]1CCN(S(=O)(=O)c2cn(C)cn2)[C@H]1Cc1cnn(C)c1.O=C(O)C(F)(F)F` | -20.7 |
| `Cc1cc(C)c2nc(CN3CCC(N4CCOCC4)CC3)cc(O)c2c1` | 5.384 |
| `COCCN1CC(C(=O)NCc2ccnc(-n3cccn3)c2)CC1=O` (stereo not drawn) | 0.6543 |
| `Cc1cnc(CN2CCN(C(C)c3nc(C)no3)CC2)cn1` (stereo not drawn) | 9.259 |
| `O=C(O)c1cc(S(=O)(=O)Nc2ccc(F)cc2Cl)cc2c1OCCO2` | -11.64 |
| `Cc1nccn1[C@@H]1CC[C@@H](NC(=O)CCOc2ccccc2)[C@H]1O` | -36.56 |
| `CN(C)C(=O)Cc1nc(CN2CCCCC2Cn2cccn2)cs1` (stereo not drawn) | 32.63 |
| `CCCn1nnc2c(sc3nc(N4CCOCC4)c4c(c32)CCC4)c1=O` | 5.63 |
| `CC(NCCN1CCN(C(=O)C2CCCC2)CC1)c1ccccn1` (stereo not drawn) | 15.23 |
| `O=C(CCNc1ncccn1)NCCOc1ccc2c(c1)CCC2` | 24.26 |
| `CC(=O)N1CCC(c2nc3ccc(C)cn3n2)CC1` | -2.716 |

Repeated from the top, 5 entries:

For COc1ccc(CNC(=O)NCc2nc(C)c(C)s2)cn1 the result was 8.579%.
For CC(C)N1CCCCC1c1nc(N(C)C)ncc1I.Cl (stereo not drawn) the result was 4.985%.
For c1ccc(CN2CCN(c3ccc4nncn4n3)CC2)nc1 the result was 16.34%.
For COCCc1ncc(CN2CCC(Oc3ccccc3C)CC2)cn1 the result was 18.28%.
For CC(NC(=O)C1CCN(C(C)C)CC1)c1nncn1C1CCCC1 (stereo not drawn) the result was 38.57%.